Data as given in US10160773B2, “Method for inducing cytotoxicity in cancer cells” (King Fahd University of Petroleum and Minerals, priority 2016, dated 2018).

How the values were obtained:
[1] = Interaction with L-tyrosine by cyclic voltammetry; conditions: 320 μM L-tyrosine, 0.1 mM complex; peak at 0.654 V in absence of gold compounds
[2] = Interaction with glutathione by cyclic voltammetry; conditions: for peak of the complex after first spike of glutathione: 20 μM glutathione into 0.1 mM complex; for effect of subsequent glutathione spikes on peak currents of the complex: 0.1 mM complex, glutathione 20-100 μM

Molecule	L-tyrosine peak potential in the presence of complex [1]	peak of the complex after first spike of glutathione [2]	effect of subsequent glutathione spikes on peak currents of the complex [2]
NC(c1cccc2ccccc12)C(N)c1cccc2ccccc12.O.O.[Au+3].[Cl-].[Cl-].[Cl-] (stereo not drawn) [Complex 1, [Au(npen)Cl2]Cl.2H2O]	+0.712 V	+0.942 V	systematic decrease in the registered peak currents
[Au(npen)2]Cl3 [Complex 2]	+0.672 V	+0.955 V	systematic decrease in the registered peak currents
